According to PMC9054788:
These are yes or no findings as the source states them, for the method shown. Binding seen in cells or lysates may run through a third protein. Binding can be weak; no strength is given.

Target: T1, Midkine (UniProt P21741)
T1 sequence: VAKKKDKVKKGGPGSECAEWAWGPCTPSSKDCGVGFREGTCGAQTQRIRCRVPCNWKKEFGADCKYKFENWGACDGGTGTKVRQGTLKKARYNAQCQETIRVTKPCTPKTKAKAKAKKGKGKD
Assay: pull-down; indicated constructs expressed in HEK293T cells for 24 h; cell lysates pulled down with S protein beads (Fig. 2b, c)

- binding: binds
Substance: AMPKγ (human (endogenous in HEK293T))
